According to patent US20180303937A1, “A COMPOSITION FOR CONTROLLED RELEASE OF A BIOMOLECULE, METHOD OF PREPARATION AND USES THEREOF” (CENTRO DE NEUROCIENCIAS E BIOLOGIA CELULAR, priority 2015, published 2018):

Test system: SC-1 mouse fibroblasts
Assay: Light-induced release of fluorescent proteins in cells (confocal microscopy, Manders' colocalization)
Format: cell-based
Conditions: for stimulus that induced primarily the release in cells: dual protein AuNR-TRITC, 4 h incubation, NIR laser

Substance | cell fluorescence after irradiation (irradiation with 1.25 or 2 W/cm^2) | colocalization between DL488-BSA and AuNR when cells are irradiated (versus non-irradiated cells) | stimulus that induced primarily the release in cells
DL488-BSA | increased fluorescence of the cell | decreases | 
DL488-BSA-ssDNA68.9 |  |  | second stimulus (2 W/cm^2, 2 min)
DL650-BSA-ssDNA51.7 |  |  | first stimulus (1.25 W/cm^2, 2 min)
